Reference: ChEMBL document CHEMBL3792344, “Synthesis, molecular properties prediction and anticancer, antioxidant evaluation of new edaravone derivatives” (Bioorg Med Chem Lett, 2016)

System: A549
Assay: Cytotoxicity against human A549 cells assessed as inhibition of cell viability after 48 hrs by MTT assay
Assay type: functional, cell-based
Settings: A549, 48 h

In the case of `COc1cccc2c1C(=O)c1c(O)c3c(c(O)c1C2=O)C[C@@](O)(C(=O)CO)C[C@@H]3O[C@H]1C[C@H](N)[C@H](O)[C@H](C)O1` [DOXORUBICIN], the IC50 is reported as 3.3 µM.
